Drawing on patent US11951094B2, “TLR2 modulator compounds, pharmaceutical compositions and uses thereof” (Axial Therapeutics, Inc., priority 2020, dated 2024), this text covers EC50 for one molecule.

By UniProt entry, the sequences of proteins in these tests, tags left out. Residues count along the entry.
UniProt O60603, 21-784 limits assumed: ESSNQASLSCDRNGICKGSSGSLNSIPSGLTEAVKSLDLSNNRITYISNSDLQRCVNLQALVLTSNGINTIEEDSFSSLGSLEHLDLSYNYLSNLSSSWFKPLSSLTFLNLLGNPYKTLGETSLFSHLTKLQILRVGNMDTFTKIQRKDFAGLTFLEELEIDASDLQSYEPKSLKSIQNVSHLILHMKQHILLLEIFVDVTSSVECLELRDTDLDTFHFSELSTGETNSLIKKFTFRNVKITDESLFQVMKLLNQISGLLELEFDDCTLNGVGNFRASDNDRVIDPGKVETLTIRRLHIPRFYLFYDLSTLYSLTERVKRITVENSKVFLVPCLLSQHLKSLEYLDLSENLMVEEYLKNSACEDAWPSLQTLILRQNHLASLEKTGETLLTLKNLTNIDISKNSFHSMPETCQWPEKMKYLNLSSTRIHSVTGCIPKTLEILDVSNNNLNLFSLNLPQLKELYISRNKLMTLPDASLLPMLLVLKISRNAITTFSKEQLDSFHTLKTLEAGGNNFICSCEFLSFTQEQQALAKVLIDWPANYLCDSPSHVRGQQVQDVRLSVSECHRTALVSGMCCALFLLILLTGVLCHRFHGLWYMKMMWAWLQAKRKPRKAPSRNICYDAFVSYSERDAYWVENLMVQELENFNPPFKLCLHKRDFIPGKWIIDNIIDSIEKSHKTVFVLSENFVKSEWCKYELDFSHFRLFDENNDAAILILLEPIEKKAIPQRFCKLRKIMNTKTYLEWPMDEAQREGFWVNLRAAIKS

By EC50 is commonly meant the midpoint of the concentration-response curve.

For the assay, the target named is TLR2 (Homo sapiens, UniProt O60603). The assay can be described thus: TLR2 agonist screening assay, HEK-Blue TLR2 reporter cell line (NF-kB-driven SEAP, absorbance at 600 nm). Type of assay: cell-based. The following applies: read-out: TLR2 (HEK-Blue) EC50; HEK-Blue TLR2 reporter cells, agonist mode; average of all runs (Table 4).

Each structure is given as a SMILES string. Structures were worked out from names or drawings and are uncertain.

Turning to `CCCCCCCCCCCCCCC(=O)NC1CC(=O)N(Cc2ccc(C(=O)N3C[C@@H](C(=O)N[C@H]4C[C@@H]4c4ccccc4)[C@H](C(=O)N[C@H]4C[C@@H]4c4ccccc4)C3)cc2)C1` (stereo partly shown), the EC50 lay within 351 to 1000 nM.
